These are yes or no findings as the source states them, for the method shown. Binding seen in cells or lysates may run through a third protein. Some entries that bind do so weakly or less than the wild type.

The target of this test is T1, Nop7-TAP (S. cerevisiae) (UniProt P53261).
T1 sequence: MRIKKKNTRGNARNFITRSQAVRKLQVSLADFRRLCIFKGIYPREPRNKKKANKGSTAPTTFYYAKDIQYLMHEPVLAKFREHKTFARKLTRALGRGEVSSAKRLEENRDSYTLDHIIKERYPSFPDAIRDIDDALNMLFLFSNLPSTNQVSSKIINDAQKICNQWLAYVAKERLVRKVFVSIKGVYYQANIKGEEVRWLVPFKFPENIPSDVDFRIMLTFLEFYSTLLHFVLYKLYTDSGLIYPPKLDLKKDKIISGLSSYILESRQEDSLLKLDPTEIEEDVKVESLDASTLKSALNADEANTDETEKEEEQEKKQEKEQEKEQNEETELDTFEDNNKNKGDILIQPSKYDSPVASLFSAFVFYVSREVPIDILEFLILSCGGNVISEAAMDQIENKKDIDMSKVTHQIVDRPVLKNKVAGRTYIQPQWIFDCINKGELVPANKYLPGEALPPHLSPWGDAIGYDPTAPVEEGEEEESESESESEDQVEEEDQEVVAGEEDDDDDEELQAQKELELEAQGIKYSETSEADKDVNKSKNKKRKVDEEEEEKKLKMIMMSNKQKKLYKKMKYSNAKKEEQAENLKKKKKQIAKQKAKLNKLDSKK
The test can be described thus: co-IP; Nop7-TAP particles isolated from WT and puf6∆ cells grown at 20 °C; NuPAGE 4-12% Bis-Tris gel, Silver staining and Western analysis.

B1: Sda1 (protein, UniProt P53313 1-767)
chain: MGRRSRAAMLPTNIILLQNLVKRDPESYQEEFLQQYAHYESLRDIFMLNGLAGGDSAAATNGLDVGNGSSTMAGTNGTTMSTSTSQLIELVGFVSQVCSCFPRETANFPSELKQLLLEHHKSLPFELKEKILSCLTMLRNKDVITAEELIQSLFPLLVAYSSHGNSLGVNSHAKELRKIIYTNLISLLKSCNTNGKNQKLNKSTQAVCFNLLDQPDSQGIWATKLTRELWRRGIWDDSRTVEIMTQAALHQDVKIVMSGVMFFLDADREREENFEENSEDEDGFDLDALRHKMQVNKKTGRRGKKLENAIKTVKKKKKNGPGAPQGYLNFSAIHLLRDPQGFAEKLFKEHLSGKTKNKFDMEQKISLMQLLSRLIGTHKLIVLGIYTFFLKYLTPKQRDVTRIMSACAQACHDLVPPEVINVMVRKIADEFVSDGVANEVAAAGINTIREICSRAPLAIDEILLQDLVEYKGSKAKGVNMAAKSLIALYRDVAPEMLKKKDRGKNAAMEVQEAKKGGKDSKRPQFGADNSVQGIAGIELLAKWKKEHGEESENEDADANWEVDVDSEEDDVDGEWVTMDSDKEYDVDMEDSDDEKDNAKGKESDSDLELSDDDDEKEVKDEQEDADIDPEAAFREIASTRILTPADFAKLQELRNEESVAKIMGIHKQDKREELVDASTLTGPIKYKQSREERLQKVLEGREGRDKFGSRRGKRDNMRSTTNREKERRKNFVMSIHKRSVRGKQKMSLRDKQKVLRAHITKQKKKGY
Take B1: the binding entry was “binds”.

The record behind these values is publication PMC8338941.
